Source: the supplement of paper PMC8975748
Structures can show the parent of a compound that is named as a salt. ± gives the standard deviation of the averaged measurements. This is one part of the list. Values are raw readings; no control value is given beside them.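 One yeast strain harboring four plasmids, each bearing a fluorescent protein plus an amino-acid or uracil synthesis gene, founds the community. Random loss of plasmids produces mixed prototroph and auxotroph subpopulations. Cells were fixed, then counted with automated confocal fluorescence imaging, with DMSO-treated wells as vehicle reference.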

What follows are molecules tested on Saccharomyces cerevisiae BY4741 SeMeCo community (assay: imaged cell count per well (cells); higher = more cells). Conditions: 10 µM; 24 h; SM minimal medium.
Method: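 Same SeMeCo high-content imaging drug screen: Selleck FDA-approved drugs at 10 µM, 24 h in SM medium, 384-well plates, 3 replicates.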

In order of rising “imaged cell count per well” value:
1. C[CH2][Hg][S]c1ccccc1C(=O)[O-].[Na+] [Thimerosal]  548 ± 110
2. C[C@@H]1[C@H](O)[C@@H](C)/C=C/C=C/CC/C=C/C=C/C=C/C=C/[C@H](O[C@H]2O[C@@H](C)[C@H](O)[C@@H](N)[C@H]2O)C[C@@H]2O[C@](O)(C[C@@H](O)[C@H](O)CC[C@@H](O)C[C@@H](O)C[C@@H](O)CC(=O)O[C@H]1C)C[C@H](O)[C@H]2C(=O)O [Nystatin (Fungicidin)]  3040 ± 100
3. Oc1cc(Cl)ccc1Oc1ccc(Cl)cc1Cl [Triclosan]  12700 ± 4900
4. COc1cc2c(cc1OC)C1CC(=O)C(CC(C)C)CN1CC2 (stereo not given) [Tetrabenazine (Xenazine)]  14300 ± 4200
5. O=c1[nH]c2ccccc2n1CCCN1CCC(n2c(=O)[nH]c3cc(Cl)ccc32)CC1 [Domperidone]  14600 ± 2400
6. CCN(CC)CCOC(=O)C(O)(c1ccccc1)c1ccccc1 [Benactyzine hydrochloride]  18000 ± 10000
7. C=C(C)[C@H]1Cc2c(ccc3c2O[C@@H]2COc4cc(OC)c(OC)cc4[C@@H]2C3=O)O1 [Rotenone (Barbasco)]  19300 ± 4800
8. Nc1nc(N)nc(NC2CC2)n1 [Cyromazine]  19700 ± 7800
9. NC(=O)CN1CCCC1=O [Piracetam]  19800 ± 2000
10. CC(NC(C)(C)C)C(=O)c1cccc(Cl)c1 (stereo not given) [Amfebutamone (Bupropion) HCl]  19800 ± 9300
11. CN1c2ccccc2C(NCCCCCCC(=O)O)c2ccc(Cl)cc2S1(=O)=O (stereo not given) [Tianeptine sodium]  19900 ± 1600
12. CC[C@@H](C(N)=O)N1CCCC1=O [Levetiracetam]  20100 ± 990
13. C=C[C@H]1CN2CC[C@H]1C[C@H]2[C@H](O)c1ccnc2ccccc12 [Cinchonidine]  20800 ± 4200
14. CN[C@@H]1[C@@H](O)[C@@H](O[C@@H]2[C@@H](O)[C@H](O[C@H]3O[C@H](CN)CC[C@H]3N)[C@@H](N)C[C@H]2N)OC[C@]1(C)O.CN[C@@H]1[C@@H](O)[C@@H](O[C@@H]2[C@@H](O)[C@H](O[C@H]3O[C@H]([C@@H](C)N)CC[C@H]3N)[C@@H](N)C[C@H]2N)OC[C@]1(C)O.CN[C@@H]1[C@@H](O)[C@@H](O[C@@H]2[C@@H](O)[C@H](O[C@H]3O[C@H]([C@@H](C)NC)CC[C@H]3N)[C@@H](N)C[C@H]2N)OC[C@]1(C)O [Gentamicin Sulfate]  21400 ± 6500
15. C[N+]12CCC(CC1)C(OC(=O)C(O)(c1ccccc1)c1ccccc1)C2 (stereo not given) [Clidinium Bromide]  21600 ± 7900
16. Oc1cccc2cccnc12 [8-Hydroxyquinoline]  22300 ± 1700
17. CN1[C@@H]2CC[C@H]1C[C@@H](OC(=O)[C@H](CO)c1ccccc1)C2 [Hyoscyamine]  23000 ± 6900
18. C#C[C@]1(O)C=C[C@H]2[C@@H]3CCC4=CC(=O)CC[C@@H]4[C@H]3CC[C@@]21CC [Gestodene]  23200 ± 2000
19. Cc1cc(O)ccc1Cl [Chlorocresol]  23200 ± 4700
20. CCN(C)C(=O)Oc1cccc([C@H](C)N(C)C)c1 [Rivastigmine Tartrate]  23300 ± 5500
21. C[C@@H]1CC[C@H]2[C@@H](C)C(=O)O[C@@H]3O[C@@]4(C)CC[C@@H]1[C@]32OO4 [Artemisinin]  24400 ± 1700
22. Cc1cc(C(C#N)c2ccc(Cl)cc2)c(Cl)cc1NC(=O)c1cc(I)cc(I)c1O (stereo not given) [Closantel]  24500 ± 9300
23. N[C@@H]1C[C@H]1c1ccccc1 [Tranylcypromine (2-PCPA) HCl]  25000 ± 9600
24. C[N+](C)(C)CCCCCCCCCC[N+](C)(C)C [Decamethonium Bromide]  25000 ± 3300
25. CN1[C@@H]2CC[C@H]1C[C@@H](OC(=O)C(CO)c1ccccc1)C2 (stereo not given in full) [Atropine sulfate monohydrate]  25200 ± 6200
26. C=CCN1C[C@H](C(=O)N(CCCN(C)C)C(=O)NCC)C[C@@H]2c3cccc4[nH]cc(c34)C[C@H]21 [Cabergoline]  25500 ± 2100
27. CC(C)N(CCC(C(N)=O)(c1ccccc1)c1ccccn1)C(C)C (stereo not given) [Disopyramide]  25500 ± 770
28. Nc1ccncc1 [4-Aminopyridine]  25600 ± 3700
29. CC(=O)OCC1=C(C(=O)O)N2C(=O)[C@@H](N)[C@H]2SC1 [7-Aminocephalosporanic acid]  25800 ± 1500
30. COc1ccc(C(CN(C)C)C2(O)CCCCC2)cc1 (stereo not given) [Venlafaxine]  26300 ± 7700
31. CCN1C[C@]2(OC(=O)c3ccccc3NC(C)=O)CC[C@H](OC)[C@@]34[C@@H]2C[C@@H]([C@@H]13)[C@@]1(O)C[C@H](OC)[C@H]2C[C@@H]4[C@]1(O)[C@H]2OC [Lappaconitine]  27000 ± 3200
32. Cn1cc(C2=C(c3cn(C4CCN(Cc5ccccn5)CC4)c4ccccc34)C(=O)NC2=O)c2ccccc21  27200 ± 3400
33. CNC1CC(N)C(O)C(OC2OC(CO)C(O)C3OC4(OC(C(N)CO)C(O)C(O)C4O)OC23)C1O (stereo not given) [Hygromycin B]  27300 ± 5000
34. COc1ccc2[nH]cc(CCN)c2c1 [5-Methoxytryptamine]  27900 ± 4000
35. C[C@H]1O[C@H](O[C@H]2[C@H](O)[C@@H](O)[C@@H](O)[C@H](O)[C@@H]2O)[C@@H](N)C[C@@H]1NC(=N)C(=O)O [Kasugamycin hydrochloride]  28200 ± 2100
36. CC1(C)S[C@@H]2[C@H](N)C(=O)N2[C@H]1C(=O)O [6-Aminopenicillanic acid]  29200 ± 5200
37. CC[C@@]1(O)C(=O)OCc2c1cc1n(c2=O)Cc2cc3ccccc3nc2-1 [Camptothecin]  29600 ± 2500
38. CN1[C@@H]2C[C@@H](OC(=O)[C@H](CO)c3ccccc3)C[C@H]1[C@@H]1O[C@@H]12 [Scopolamine HBr trihydrate]  29700 ± 3000
39. CC[C@H]1[C@@H]2C[C@H]3[C@@H]4N(C)c5ccccc5[C@]45C[C@@H]([C@@H]2[C@H]5O)N3[C@@H]1O [Ajmaline]  30400 ± 1400
40. Cc1cc(C(C#N)c2ccc(Cl)cc2)c(Cl)cc1NC(=O)c1cc(I)cc(I)c1O (stereo not given) [Closantel Sodium]  34000 ± 6200
